The other results are listed elsewhere or left out.
Legend:
Assay in all cases: log2 fold change, soluble protein after heating vs DMSO (PISA); higher = thermal stabilisation; K562 cells, 10 uM, 30 min; active = over 0.2 and 3.5 SD of the protein, either way, in both replicates (recomputed)
[1] = compound: CS(=O)(=O)c1ccc(-c2cnc(N)c(C(=O)Nc3ccccc3)n2)cc1
Outline: (§1)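 Soluble protein was quantified by TMTpro 16plex LC-MS/MS after channel sums were equalised. It was obtained as the supernatant after 21,000xg for 90 min from pooled aliquots of K562 cells (2×10^6 cells/mL, 10 μM compound, 30 min) heated for 3 min across 48°C-58°C and extracted in PBS with 0.5% NP-40 at 4°C. Thermal stability values are relative to control samples and come from duplicates. They are given as log2 fold changes.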

Protein sequences, listed by entry. Tags and fused reporters are not part of them. Lines headed by an entry give the natural chain unless they say otherwise; changes in a name come on top.
UniProt O75352: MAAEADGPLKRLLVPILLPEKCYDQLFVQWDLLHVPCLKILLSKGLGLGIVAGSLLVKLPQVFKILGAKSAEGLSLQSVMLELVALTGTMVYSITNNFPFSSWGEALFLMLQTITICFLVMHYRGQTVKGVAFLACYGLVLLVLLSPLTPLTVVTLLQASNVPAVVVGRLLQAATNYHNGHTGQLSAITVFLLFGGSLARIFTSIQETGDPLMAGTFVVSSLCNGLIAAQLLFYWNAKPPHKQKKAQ
UniProt P34949: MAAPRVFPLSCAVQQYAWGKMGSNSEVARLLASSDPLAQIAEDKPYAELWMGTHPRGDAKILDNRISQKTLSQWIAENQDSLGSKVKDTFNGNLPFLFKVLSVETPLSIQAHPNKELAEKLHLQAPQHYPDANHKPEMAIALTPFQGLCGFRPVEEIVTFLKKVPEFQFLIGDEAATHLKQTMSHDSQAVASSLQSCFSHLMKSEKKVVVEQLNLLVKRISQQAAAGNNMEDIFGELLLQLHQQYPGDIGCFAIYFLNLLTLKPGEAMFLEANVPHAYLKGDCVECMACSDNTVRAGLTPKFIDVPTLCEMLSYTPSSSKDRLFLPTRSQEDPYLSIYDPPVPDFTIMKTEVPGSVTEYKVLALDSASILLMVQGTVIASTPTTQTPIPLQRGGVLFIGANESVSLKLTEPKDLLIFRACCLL
UniProt Q9HAP2: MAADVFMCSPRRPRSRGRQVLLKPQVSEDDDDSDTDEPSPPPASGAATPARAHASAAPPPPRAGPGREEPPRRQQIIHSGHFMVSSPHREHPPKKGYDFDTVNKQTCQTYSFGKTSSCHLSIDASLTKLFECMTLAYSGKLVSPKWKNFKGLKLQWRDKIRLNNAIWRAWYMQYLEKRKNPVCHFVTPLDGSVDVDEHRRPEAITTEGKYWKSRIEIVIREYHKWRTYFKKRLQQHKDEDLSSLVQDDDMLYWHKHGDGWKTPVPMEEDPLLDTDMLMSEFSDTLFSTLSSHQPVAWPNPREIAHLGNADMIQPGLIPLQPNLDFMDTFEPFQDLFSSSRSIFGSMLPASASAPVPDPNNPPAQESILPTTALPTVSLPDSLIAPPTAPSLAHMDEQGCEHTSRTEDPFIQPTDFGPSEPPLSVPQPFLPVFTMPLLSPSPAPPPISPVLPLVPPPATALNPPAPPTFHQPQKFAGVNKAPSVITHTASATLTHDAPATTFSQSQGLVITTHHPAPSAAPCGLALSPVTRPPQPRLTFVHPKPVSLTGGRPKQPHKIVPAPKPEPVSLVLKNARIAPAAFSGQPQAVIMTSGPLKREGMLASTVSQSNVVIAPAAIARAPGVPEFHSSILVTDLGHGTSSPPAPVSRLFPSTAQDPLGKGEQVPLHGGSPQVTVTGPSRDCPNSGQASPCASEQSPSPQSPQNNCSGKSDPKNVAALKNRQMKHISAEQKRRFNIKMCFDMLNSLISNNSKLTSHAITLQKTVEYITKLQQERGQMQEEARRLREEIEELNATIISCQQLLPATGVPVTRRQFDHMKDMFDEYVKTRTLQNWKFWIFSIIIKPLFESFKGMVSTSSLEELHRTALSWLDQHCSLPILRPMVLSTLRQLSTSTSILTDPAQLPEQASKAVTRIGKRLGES
UniProt O96007: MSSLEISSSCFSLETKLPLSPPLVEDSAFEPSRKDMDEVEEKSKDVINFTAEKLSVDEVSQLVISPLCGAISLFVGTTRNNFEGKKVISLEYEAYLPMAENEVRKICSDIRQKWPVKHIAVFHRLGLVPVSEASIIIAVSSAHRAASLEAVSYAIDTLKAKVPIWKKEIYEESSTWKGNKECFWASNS
UniProt Q9UBU8, whole entry, looked up: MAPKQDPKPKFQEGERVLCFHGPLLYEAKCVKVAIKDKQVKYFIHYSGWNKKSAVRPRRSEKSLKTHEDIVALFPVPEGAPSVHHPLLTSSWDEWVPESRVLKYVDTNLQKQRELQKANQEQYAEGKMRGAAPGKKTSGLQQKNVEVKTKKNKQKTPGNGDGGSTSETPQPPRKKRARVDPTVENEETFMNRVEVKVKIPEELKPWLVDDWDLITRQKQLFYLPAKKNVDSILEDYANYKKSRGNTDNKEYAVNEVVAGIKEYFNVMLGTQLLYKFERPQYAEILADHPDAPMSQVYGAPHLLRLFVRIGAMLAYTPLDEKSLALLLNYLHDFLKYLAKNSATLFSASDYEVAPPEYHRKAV
UniProt P49959: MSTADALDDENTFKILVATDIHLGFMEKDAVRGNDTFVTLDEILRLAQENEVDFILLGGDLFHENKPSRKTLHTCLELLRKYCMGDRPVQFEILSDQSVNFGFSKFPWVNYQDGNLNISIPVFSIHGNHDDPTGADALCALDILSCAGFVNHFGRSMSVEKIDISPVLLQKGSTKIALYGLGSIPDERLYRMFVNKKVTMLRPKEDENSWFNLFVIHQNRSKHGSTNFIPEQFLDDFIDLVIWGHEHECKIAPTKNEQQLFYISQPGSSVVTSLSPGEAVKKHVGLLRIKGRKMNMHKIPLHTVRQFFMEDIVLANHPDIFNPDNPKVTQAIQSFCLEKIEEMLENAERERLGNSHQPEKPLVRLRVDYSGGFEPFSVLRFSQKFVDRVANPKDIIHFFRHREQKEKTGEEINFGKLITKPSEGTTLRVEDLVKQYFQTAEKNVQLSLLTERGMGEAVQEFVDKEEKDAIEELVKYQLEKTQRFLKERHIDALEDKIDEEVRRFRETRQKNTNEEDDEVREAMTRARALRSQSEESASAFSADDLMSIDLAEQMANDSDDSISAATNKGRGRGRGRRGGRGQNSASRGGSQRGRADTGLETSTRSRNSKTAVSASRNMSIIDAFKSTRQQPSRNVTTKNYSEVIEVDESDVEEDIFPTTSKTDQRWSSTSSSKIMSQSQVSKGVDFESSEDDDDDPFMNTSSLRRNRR
UniProt Q9BV20: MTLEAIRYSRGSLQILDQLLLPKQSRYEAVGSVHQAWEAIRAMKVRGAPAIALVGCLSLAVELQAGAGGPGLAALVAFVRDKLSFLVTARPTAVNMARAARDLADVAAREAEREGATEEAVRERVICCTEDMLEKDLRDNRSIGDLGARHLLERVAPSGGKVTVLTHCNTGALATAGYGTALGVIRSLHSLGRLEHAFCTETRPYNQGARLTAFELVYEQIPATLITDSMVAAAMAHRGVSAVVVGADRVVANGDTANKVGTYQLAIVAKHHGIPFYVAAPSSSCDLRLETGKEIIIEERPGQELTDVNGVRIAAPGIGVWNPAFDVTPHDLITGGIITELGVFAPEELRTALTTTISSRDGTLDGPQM
UniProt Q9Y3A3: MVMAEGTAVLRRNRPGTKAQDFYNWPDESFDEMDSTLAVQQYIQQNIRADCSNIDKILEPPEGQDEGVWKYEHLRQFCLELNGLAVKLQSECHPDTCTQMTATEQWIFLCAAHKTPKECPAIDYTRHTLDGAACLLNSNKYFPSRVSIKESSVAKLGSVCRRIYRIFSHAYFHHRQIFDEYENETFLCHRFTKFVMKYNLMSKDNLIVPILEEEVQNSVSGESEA
UniProt Q9NYP9: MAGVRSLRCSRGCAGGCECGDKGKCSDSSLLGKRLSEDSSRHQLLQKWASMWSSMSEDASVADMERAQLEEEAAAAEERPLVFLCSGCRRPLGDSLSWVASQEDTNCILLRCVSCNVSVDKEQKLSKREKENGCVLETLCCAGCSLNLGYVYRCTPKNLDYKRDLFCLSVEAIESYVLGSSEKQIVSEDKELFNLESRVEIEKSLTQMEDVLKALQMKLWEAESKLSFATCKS
UniProt Q9HC36: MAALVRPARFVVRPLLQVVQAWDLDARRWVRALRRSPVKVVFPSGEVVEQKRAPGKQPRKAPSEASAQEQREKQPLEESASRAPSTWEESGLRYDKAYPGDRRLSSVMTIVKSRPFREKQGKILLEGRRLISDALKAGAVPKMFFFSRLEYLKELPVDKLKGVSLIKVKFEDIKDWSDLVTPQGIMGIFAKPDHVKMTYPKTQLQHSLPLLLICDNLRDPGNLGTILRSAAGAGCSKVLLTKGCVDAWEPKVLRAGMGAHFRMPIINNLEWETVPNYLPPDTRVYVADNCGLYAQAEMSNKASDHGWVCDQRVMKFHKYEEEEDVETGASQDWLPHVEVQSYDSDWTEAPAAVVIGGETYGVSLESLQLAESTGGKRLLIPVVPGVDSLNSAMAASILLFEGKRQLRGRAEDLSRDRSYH

[2] = compound: C[C@@H](Oc1cc(-c2cnn(C3CCNCC3)c2)cnc1N)c1c(Cl)ccc(F)c1Cl [crizotinib]
Outline: as §1

[3] = compound: C[C@@H]1COCCN1C2=NC(=NC(=C2)C3(CC3)S(=O)(=O)C)C4=C5C=CNC5=CC=C4
Outline: as §1

[4] = compound: C[C@H](C1=CC=C(C=C1)C(=O)NC2=C3C=CNC3=NC=C2)N
Outline: as §1

[5] = compound: C[C@H](Nc1ncnc2nc[nH]c12)c1cc2cccc(Cl)c2c(=O)n1-c1ccccc1 [duvelisib]
Outline: as §1

[6] = compound: Cc1cc(Nc2cc(CN3CCOCC3)c3nc(C)c(Cc4ccc(Cl)cc4F)n3n2)n[nH]1 [gandotinib]
Outline: as §1

[7] = compound: Cc1cc(Nc2cc(N3CCN(C)CC3)nc(Sc3ccc(NC(=O)C4CC4)cc3)n2)n[nH]1 [tozasertib]
Outline: as §1

[8] = compound: Cc1cc(SCc2sc(-c3ccc(C(F)(F)F)cc3)nc2C)ccc1OCC(=O)O
Outline: as §1

[9] = compound: Cc1ccc(-n2nc(C(C)(C)C)cc2NC(=O)Nc2ccc(OCCN3CCOCC3)c3ccccc23)cc1 [doramapimod]
Outline: as §1

[10] = compound: Cc1ccc(C(=O)N(CCCN)[C@@H](c2nc3cc(Cl)ccc3c(=O)n2Cc2ccccc2)C(C)C)cc1 [ispinesib]
Outline: as §1

[11] = compound: Cc1ccc(NC(=O)c2ccc(CN3CC[C@H](N(C)C)C3)c(C(F)(F)F)c2)cc1Nc1nccc(-c2cncnc2)n1 [bafetinib]
Outline: as §1

[12] = compound: Cc1cccc(CC(=O)N2CCc3c2ccc(-c2cn(C)c4ncnc(N)c24)c3F)n1
Outline: as §1

[13] = compound: Cc1cn(-c2cc(NC(=O)c3ccc(C)c(Nc4nccc(-c5cccnc5)n4)c3)cc(C(F)(F)F)c2)cn1 [nilotinib]
Outline: as §1

[14] = compound: Cc1nc(Nc2n[nH]c3c2CN(C(=O)N[C@H](CN(C)C)c2ccccc2)C3(C)C)c2sccc2n1
Outline: as §1

[15] = compound: Cc1nc(Nc2ncc(C(=O)Nc3c(C)cccc3Cl)s2)cc(N2CCN(CCO)CC2)n1 [dasatinib]
Outline: as §1

[16] = compound: Cc1ncc(-c2ccnc(Nc3ccc(S(C)(=O)=O)cc3)n2)n1C(C)C
Outline: as §1

[17] = compound: Cn1cc(-c2ccc3c(c2)CCN3C(=O)Cc2cccc(C(F)(F)F)c2)c2c(N)ncnc21
Outline: as §1

[18] = compound: Cn1cc(-c2ccc3nnc(C(F)(F)c4ccc5ncccc5c4)n3n2)cn1
Outline: as §1

[19] = compound: Cn1cncc1[C@@](N)(c1ccc(Cl)cc1)c1ccc2c(c1)c(-c1cccc(Cl)c1)cc(=O)n2C [tipifarnib]
Outline: as §1

[20] = compound: FC(F)(F)c1ccc(/C=C/c2nc(COc3ccc(CCCCn4ccnn4)cc3)co2)cc1 [mubritinib]
Outline: as §1

Measured: log2 fold change

MRPL51 (UniProt Q4U2R6)
inactive: [1] 0.053 | [2] -0.032 | [3] -0.141 | [4] 0.352 | [5] -0.134 | [6] 0.234 | [7] -0.052 | [8] 0.067 | [9] 0.086 | [10] -0.107 | [11] 0.234 | [12] -0.078 | [13] -0.161 | [14] 0.113 | [15] 0.018 | [16] 0.017 | [17] -0.062 | [18] -0.076 | [19] 0.112 | [20] 0.015

MPDU1 (UniProt O75352)
inactive: [1] 0.001 | [2] 0.117 | [3] 0.264 | [4] -0.139 | [5] 0.208 | [6] -0.031 | [7] -0.01 | [8] 0.027 | [9] 0.013 | [10] 0.117 | [11] -0.022 | [12] -0.03 | [13] 0.039 | [14] 0.031 | [15] -0.199 | [16] -0.005 | [17] 0.075 | [18] 0.071 | [19] 0.15 | [20] 0.09

MPI (UniProt P34949)
inactive: [1] 0.017 | [2] 0.002 | [3] 0.054 | [4] -0.015 | [5] 0.045 | [6] -0.105 | [7] -0.008 | [8] 0.006 | [9] -0.008 | [10] -0.003 | [11] -0.087 | [12] 0.055 | [13] -0.195 | [14] -0.074 | [15] -0.092 | [16] -0.011 | [17] 0.02 | [18] 0.007 | [19] 0.045 | [20] 0.018

MLXIP (UniProt Q9HAP2)
inactive: [1] -0.016 | [2] -0.131 | [3] 0.095 | [4] -0.017 | [5] 0.1 | [6] 0.044 | [7] 0.043 | [8] 0.171 | [9] 0.061 | [10] -0.097 | [11] 0.357 | [12] -0.067 | [13] -0.007 | [14] -0.018 | [15] -0.071 | [16] -0.072 | [17] 0.039 | [18] 0.068 | [19] -0.153 | [20] -0.011

MRPL42 (UniProt Q9Y6G3)
inactive: [1] -0.13 | [2] -0.068 | [3] -0.21 | [4] 0.063 | [5] -0.085 | [6] -0.108 | [7] 0.021 | [8] -0.266 | [9] 0.025 | [10] -0.235 | [11] -0.049 | [12] -0.258 | [13] 0.108 | [14] 0.1 | [15] 0.032 | [16] -0.057 | [17] -0.237 | [18] -0.045 | [19] 0.339 | [20] -0.071

Copied from the entries so far (2 entries):
MPDU1 (UniProt O75352)
inactive: [1] 0.001 | [2] 0.117 | [3] 0.264 | [4] -0.139 | [5] 0.208 | [6] -0.031 | [7] -0.01 | [8] 0.027 | [9] 0.013 | [10] 0.117 | [11] -0.022 | [12] -0.03 | [13] 0.039 | [14] 0.031 | [15] -0.199 | [16] -0.005 | [17] 0.075 | [18] 0.071 | [19] 0.15 | [20] 0.09

MPI (UniProt P34949)
inactive: [1] 0.017 | [2] 0.002 | [3] 0.054 | [4] -0.015 | [5] 0.045 | [6] -0.105 | [7] -0.008 | [8] 0.006 | [9] -0.008 | [10] -0.003 | [11] -0.087 | [12] 0.055 | [13] -0.195 | [14] -0.074 | [15] -0.092 | [16] -0.011 | [17] 0.02 | [18] 0.007 | [19] 0.045 | [20] 0.018

(next part)

MOCS2 (UniProt O96007)
inactive: [1] -0.012 | [2] 0.048 | [3] 0.038 | [4] 0.025 | [5] 0.059 | [6] -0.033 | [7] 0.004 | [8] -0.06 | [9] 0.004 | [10] -0.01 | [11] -0.065 | [12] -0.022 | [13] 0 | [14] 0.012 | [15] 0.039 | [16] 0.01 | [17] 0.035 | [18] 0.032 | [19] -0.038 | [20] -0.006

MRPL20 (UniProt Q9BYC9)
inactive: [1] 0.04 | [2] 0.069 | [3] -0.038 | [4] 0.258 | [5] -0.117 | [6] 0 | [7] 0.007 | [8] 0.07 | [9] 0.055 | [10] -0.044 | [11] 0.135 | [12] 0.105 | [13] -0.022 | [14] 0.172 | [15] -0.071 | [16] -0.007 | [17] -0.074 | [18] -0.041 | [19] 0.074 | [20] 0.025

MORF4L1 isoform 2 (UniProt Q9UBU8)
inactive: [1] -0.05 | [2] -0.076 | [3] 0.106 | [4] 0.026 | [5] 0.02 | [6] -0.023 | [7] 0.031 | [8] -0.036 | [9] -0.03 | [10] -0.012 | [11] 0.021 | [12] 0.021 | [13] -0.031 | [14] -0.007 | [15] 0.01 | [16] -0.085 | [17] -0.025 | [18] -0.063 | [19] -0.007 | [20] 0

MRE11 isoform 3 (UniProt P49959)
inactive: [1] 0.014 | [2] 0.112 | [3] -0.031 | [4] -0.042 | [5] 0.015 | [6] 0.021 | [7] 0.029 | [8] -0.04 | [9] -0.034 | [10] 0.04 | [11] -0.038 | [12] -0.002 | [13] 0.059 | [14] -0.086 | [15] 0.006 | [16] -0.018 | [17] -0.006 | [18] 0.038 | [19] 0.048 | [20] 0.091

MRPL35 (UniProt Q9NZE8)
inactive: [1] -0.013 | [2] -0.013 | [3] -0.102 | [4] 0.274 | [5] -0.132 | [6] 0.315 | [7] 0.111 | [8] 0.093 | [9] 0.029 | [10] -0.126 | [11] 0.167 | [12] 0.083 | [13] -0.081 | [14] 0.103 | [15] 0.034 | [16] -0.063 | [17] -0.21 | [18] 0.126 | [19] 0.116 | [20] 0.055

MRI1 (UniProt Q9BV20)
inactive: [1] 0.037 | [2] 0.107 | [3] 0.008 | [4] -0.068 | [5] 0.075 | [6] 0.011 | [7] 0.006 | [8] -0.013 | [9] -0.044 | [10] 0.192 | [11] -0.007 | [12] -0.057 | [13] 0.043 | [14] 0.002 | [15] -0.016 | [16] 0 | [17] 0.036 | [18] 0.014 | [19] -0.027 | [20] 0.031

MOB4 (UniProt Q9Y3A3)
inactive: [1] 0.029 | [2] 0.014 | [3] 0.021 | [4] -0.111 | [5] 0.072 | [6] -0.057 | [7] -0.043 | [8] 0.063 | [9] -0.051 | [10] 0.015 | [11] -0.027 | [12] -0.007 | [13] 0.048 | [14] 0.035 | [15] -0.011 | [16] -0.022 | [17] 0.023 | [18] 0.019 | [19] -0.012 | [20] 0.047

MRPL16 (UniProt Q9NX20)
inactive: [1] 0.027 | [2] 0.063 | [3] -0.036 | [4] 0.203 | [5] -0.108 | [6] 0.308 | [7] 0.013 | [8] -0.024 | [9] 0.1 | [10] -0.008 | [11] 0.228 | [12] 0.166 | [13] -0.078 | [14] 0.173 | [15] 0.076 | [16] -0.031 | [17] -0.343 | [18] -0.014 | [19] 0.165 | [20] 0.027

MIS18A (UniProt Q9NYP9)
inactive: [1] 0.024 | [2] 0.044 | [3] -0.047 | [4] -0.1 | [5] 0.024 | [6] -0.025 | [7] 0.021 | [8] -0.01 | [9] -0.013 | [10] 0.075 | [11] -0.074 | [12] 0.002 | [13] 0.062 | [14] -0.059 | [15] -0.011 | [16] -0.024 | [17] 0.013 | [18] -0.009 | [19] -0.009 | [20] 0.017

MRM3 (UniProt Q9HC36)
inactive: [1] -0.052 | [2] 0.033 | [3] -0.4 | [4] 0.363 | [5] -0.114 | [6] 0.193 | [7] 0 | [8] 0.016 | [9] 0.26 | [10] 0 | [11] 0.316 | [12] -0.018 | [13] 0.056 | [14] 0.159 | [15] 0.208 | [16] 0.019 | [17] -0.279 | [18] -0.055 | [19] 0.235 | [20] -0.306
